PMC10808074, “Regulation of micro- and small-exon retention and other splicing processes by GRP20 for flower development”

Target: GRP20-YFP fusion protein expressed in plants (Arabidopsis thaliana) (UniProt Q9LY07)
Test: affinity purification with mass spectrometry; immunoprecipitation-mass spectrometry with a GRP20-YFP protein expressed in plants

B1: CLO (spliceosome U5 component found by IP-MS) (protein, UniProt Q9LNC5 1-987)
chain: MESSLYDEFGNYVGPEIESDRDSDDEVEDEDLQDKHLEENGSDGEQGPGGSNGWITTINDVEMENQIVLPEDKKYYPTAEEVYGEDVETLVMDEDEQPLEQPIIKPVRDIRFEVGVKDQATYVSTQFLIGLMSNPALVRNVALVGHLQHGKTVFMDMLVEQTHHMSTFNAKNEKHMKYTDTRVDEQERNISIKAVPMSLVLEDSRSKSYLCNIMDTPGHVNFSDEMTASLRLADGAVLIVDAAEGVMVNTERAIRHAIQDHLPIVVVINKVDRLITELKLPPRDAYYKLRHTIEVINNHISAASTTAGDLPLIDPAAGNVCFASGTAGWSFTLQSFAKMYAKLHGVAMDVDKFASRLWGDVYYHSDTRVFKRSPPVGGGERAFVQFILEPLYKIYSQVIGEHKKSVETTLAELGVTLSNSAYKLNVRPLLRLACSSVFGSASGFTDMLVKHIPSPREAAARKVDHSYTGTKDSPIYESMVECDPSGPLMVNVTKLYPKSDTSVFDVFGRVYSGRLQTGQSVRVLGEGYSPEDEEDMTIKEVTKLWIYQARYRIPVSSAPPGSWVLIEGVDASIMKTATLCNASYDEDVYIFRALQFNTLPVVKTATEPLNPSELPKMVEGLRKISKSYPLAITKVEESGEHTILGTGELYLDSIMKDLRELYSEVEVKVADPVVSFCETVVESSSMKCFAETPNKKNKITMIAEPLDRGLAEDIENGVVSIDWNRKQLGDFFRTKYDWDLLAARSIWAFGPDKQGPNILLDDTLPTEVDRNLMMAVKDSIVQGFQWGAREGPLCDEPIRNVKFKIVDARIAPEPLHRGSGQMIPTARRVAYSAFLMATPRLMEPVYYVEIQTPIDCVTAIYTVLSRRRGHVTSDVPQPGTPAYIVKAFLPVIESFGFETDLRYHTQGQAFCLSVFDHWAIVPGDPLDKAIQLRPLEPAPIQHLAREFMVKTRRRKGMSEDVSGNKFFDEAMMVELAQQTGDLHLQMI
  binding: binds

No constants are given. Whether binding was seen depends on the method and setting. Binding seen in cells or lysates may run through a third protein. Here binding means that the protein was enriched with, or labelled near, the bait; the list need not be complete.
